Our source for the binding values is article PMC11225194.

Chains of the proteins cited; added tags and fusions are not shown. Lines headed by an entry give the natural chain unless they say otherwise; changes in a name come on top. A line that says so, or that is headed by a name, gives the form on record, which may keep a tag or linker. Residues count along the entry.
UniProt P68104: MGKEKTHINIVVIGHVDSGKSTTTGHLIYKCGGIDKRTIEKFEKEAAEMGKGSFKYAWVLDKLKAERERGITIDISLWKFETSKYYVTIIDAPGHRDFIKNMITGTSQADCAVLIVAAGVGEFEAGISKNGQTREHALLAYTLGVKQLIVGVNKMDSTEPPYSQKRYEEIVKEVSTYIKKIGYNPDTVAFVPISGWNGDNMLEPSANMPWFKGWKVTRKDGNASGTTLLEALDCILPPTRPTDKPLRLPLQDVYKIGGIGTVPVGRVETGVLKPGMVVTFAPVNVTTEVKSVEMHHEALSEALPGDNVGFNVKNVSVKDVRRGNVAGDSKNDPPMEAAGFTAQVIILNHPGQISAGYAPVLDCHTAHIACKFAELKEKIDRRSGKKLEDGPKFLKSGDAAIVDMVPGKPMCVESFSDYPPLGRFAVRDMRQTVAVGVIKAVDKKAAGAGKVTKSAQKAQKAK
Flag-tagged EEF1A1 domain 2 (aa239 to aa332): residues 239-332 of P68104

These are yes or no findings as the source states them, for the method shown. Binding seen in cells or lysates may run through a third protein. Some binding calls cover weakened binding; strength is not graded here. For part of these data: Where a sequence is shown, tags or fusion partners need not be part of it.

In assay [1] the target is T1, Ubiquitin carboxyl-terminal hydrolase L3 (UCHL3), endogenous in HCC cells (human (endogenous in HEP3B and HUH7)) (UniProt P15374).
T1 sequence: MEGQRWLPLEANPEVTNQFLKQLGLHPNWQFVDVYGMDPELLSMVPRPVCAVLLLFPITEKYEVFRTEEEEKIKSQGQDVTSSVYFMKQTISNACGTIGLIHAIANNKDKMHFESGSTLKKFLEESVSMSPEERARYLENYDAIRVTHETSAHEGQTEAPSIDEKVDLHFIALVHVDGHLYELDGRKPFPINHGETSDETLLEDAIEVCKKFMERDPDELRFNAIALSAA
Briefly: co-IP; endogenous proteins in HEP3B and HUH7 lysates; anti-UCHL3 or anti-EEF1A1 antibody on magnetic beads, lysate overnight at 4 C, IgG control, western blot.

Assay [2] has as its target Flag-tagged full-length EEF1A1 (UniProt P68104). Briefly: co-IP; Flag-tagged EEF1A1 constructs transfected in 293T cells and HUH7 cells, immunoprecipitation with Flag antibody on magnetic beads, western blot for UCHL3.
Assay [3] concerns the target Flag-tagged EEF1A1 domain 2 (aa239 to aa332) (UniProt P68104). The assay is described as above.

In the case of “Eukaryotic translation elongation factor 1 alpha 1 (EEF1A1), endogenous in HCC cells (from UniProt P68104 1-462)”, in assay [1], the binding entry is “binds”.

B1: UCHL3 in 293T and HUH7 cells transfected with Flag-tagged EEF1A1 constructs (enzyme, UniProt P15374 1-230)
chain: T1 sequence
Take B1: the binding entry in assay [2] and in assay [3] was “binds” each time.
